Laboratory results as given in the supplement of paper PMC3334620.
Whole data set: some 33,000 sequences, median “E-score (-0.5 to 0.5)” near -8e-05, cut for the highest 2% near 0.23. This is one part of the list.

Target: T1, Nrg2 (UniProt P38082)
T1 sequence: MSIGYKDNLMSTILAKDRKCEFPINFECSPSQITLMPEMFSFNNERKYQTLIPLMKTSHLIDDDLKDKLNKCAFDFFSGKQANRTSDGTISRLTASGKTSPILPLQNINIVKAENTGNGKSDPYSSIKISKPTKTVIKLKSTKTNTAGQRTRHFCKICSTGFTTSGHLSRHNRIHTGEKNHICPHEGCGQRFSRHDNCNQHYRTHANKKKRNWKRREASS
Assay: PBM E-score (8-mer binding enrichment) (E-score (-0.5 to 0.5)); higher = stronger / more preferred TF binding
Details: protein concentration: 100 nM; construct: GST-full length
Summary of the method: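 E-scores (a modified Wilcoxon-Mann-Whitney statistic) were assigned by the Universal PBM Analysis Suite to every ungapped eight-base word pooled with its reverse complement. The input came from universal all-10-mer Agilent arrays made double-stranded by primer extension and probed with GST-tagged yeast transcription factors at about 100-200 nM. Fluorescent anti-GST detected bound protein, and masliner normalised the scans.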

Sequence	PBM E-score
ACCTCGGA	0.131
AAGCGAGA	-0.0317
GACCCGGC	-0.162
GCGGCACA	0.0179
GGTTCGGA	-0.015
CACGTTGA	-0.0134
TCTACAGA	-0.165
ATTTAACC	0.0679
GTTTAGCA	0.0112
ATGAGCGA	0.128
AGCAAACG	-0.151
CACGCACG	0.0453
ACAGAGAT	0.0412
ATTTTGCC	-0.0941
ATTGGGTG	0.16
TGCAGTAA	0.131
ACCGTGGG	-0.237
CATCGTGG	-0.0786
ACTAGGCA	-0.136
GTCCGGAA	0.0127
AGGTCGCA	0.0731
GTTTCAAA	0.0234
AGGAGGGA	-0.231
AGATAAAT	0.0671
GACACCAC	-0.115

Sequence	PBM E-score
AATGTAGC	-0.0343
ACATACTC	-0.161
CGTAGTGA	-0.131
ACGGCAGC	0.0388
CAGGCGGA	0.164
GTCACTCA	0.157
TAAAGAGA	0.0364
GCAATCTA	0.00861
ACTGCGTG	-0.235
TGATAACA	0.103
CAGCGATC	-0.0507
GCAGCTCA	-0.00091
CCACCTGA	0.0302
ACGGCCTG	0.0146
GGAACGCC	-0.209
AAAATCAA	0.0602
AACACCGC	-0.0853
AGTTCGGA	0.0505
TGTCTTAA	0.1
ATCACTAC	0.0691
ATTTGCAA	0.201
GAACTGAC	0.0406
CTGGTCTC	-0.207
ACGTTGCC	-0.198
ACCCATTG	-0.131

Sequence	PBM E-score
GCAACCAC	0.0541
AGTTGGAG	0.111
ACAACGCA	0.0498
CCACTAAA	-0.0129
AATACCCC	0.0366
CGCCTCAG	-0.171
ATTTGATC	0.0379
CCTATCTA	0.0132
AAAACCAG	0.207
ATGGAATA	0.235
CCTAGAAC	0.131
TAATCCCA	-0.0844
ATCCGTCG	0.00117
GATTGGAC	0.0358
ACGGTGAT	0.0582
AGCAACAA	0.119
CAACGCGC	0.215
AATATCTC	0.0954
GTCCTCGA	0.153
ACAGAGCA	0.0833
ACTCATTA	0.268
ATATTGCG	0.119
AAGAAATC	-0.0386
CGCAGGTC	-0.0995
CCCCGTGA	0.0752

Sequence	PBM E-score
GAGAATAA	0.128
AAACTAGC	-0.0439
GGATAAAC	0.133
AACCTGCA	0.154
AACGGGCG	0.0331
AATACATA	0.0257
GGTTACAA	-0.0351
AAAGCACA	0.0449
GGGTTTAC	-0.0342
TATAAATA	0.255
ATACCTAA	0.222
ATACGCCG	-0.148
AGCGAGTA	0.144
GGATGGCC	-0.31
AGTGCCAA	-0.14
ACTGGCAC	-0.052
GATCTCAA	0.115
CTGAGACC	-0.124
AGAGCGAA	0.062
GAGGGGTA	-0.0925
GCTCATGA	0.055
CATTAGAC	-0.252
CGGCTACC	0.127
AATGCGTC	0.0563
CAGAGATA	0.106

Shown field by field: part of the list above.
TATAAATA
  PBM E-score: 0.255
ATACCTAA
  PBM E-score: 0.222
ATACGCCG
  PBM E-score: -0.148
AGCGAGTA
  PBM E-score: 0.144

Some values from the results shown.
Entry of TATAAATA under PBM E-score: 0.255
Entry of GAGGGGTA under PBM E-score: -0.0925
Entry of GGATGGCC under PBM E-score: -0.31
Entry of CAGAGATA under PBM E-score: 0.106
Entry of AGAGCGAA under PBM E-score: 0.062
Entry of GATCTCAA under PBM E-score: 0.115

(next part)

Sequence	PBM E-score
ACGGGAAG	-0.186
GTTCCTTA	-0.0398
CAGAGTAA	-0.0973
AGAGCCTC	-0.224
CTGGCTCC	-0.242
TCATCGCA	-0.131
ACTAGCCC	-0.047
AGCACGTG	0.00832
AGGGAGTG	-0.088
AATAGTGA	0.0651
AGAGGCAG	0.0519
CCTCATAG	0.059
AACTGTAT	0.0876
GCTAGTAC	-0.114
CCAGGAAG	-0.164
TATCCTCA	0.0265
AGGCAACT	0.0578
AACGAAAT	0.251
AAGGGACC	0.424
ACGGTAAG	-0.164
GCGGGTAC	0.0243
ACAACACA	0.0869
CAACCGAA	0.171
AGAATGGC	0.0093
ACAGCCAT	0.0709

Sequence	PBM E-score
AATGGGGG	-0.337
AGTTCGAT	0.0318
AACTCCGT	0.0651
AAGAAAGC	0.0284
GTAGGTGA	-0.167
CGTAAGCC	-0.237
TCAGATGA	0.148
AGTAATAG	0.247
AGGGGCCA	0.0682
CTCGACTA	-0.118
CGATGGCC	-0.0342
CAGGGCAC	0.215
GCAGTACC	-0.0693
TACACGGA	0.136
GCCACAGC	-0.0308
ATCTGTAG	-0.16
AAGCGACG	-0.0894
AACTCAAA	0.109
TATCTAAA	0.0773
AGATTGTA	0.0256
AAAAAGCC	0.14
ATGGGGAG	0.0173
GGTTTCGA	0.191
CCGGTAAG	-0.0351
TAACGCGA	0.0726

Sequence	PBM E-score
GCGCTCTA	0.0746
GATCGCGA	0.168
TGACGAAA	0.109
TACGGAGA	-0.0934
CTGTACAA	-0.0574
TAGAAGAA	-0.122
CGCCATAC	-0.017
CCGAAGTA	-0.0036
AGTTTTAT	0.0628
CAAATAAC	0.181
AATCAACT	0.171
ACATCGCC	0.00877
CGTTCTTA	0.0871
CAATGCCA	0.0462
AACCATTC	-0.082
TGGCATAA	0.144
CGACATAG	0.0485
GGGGCGAC	-0.0474
TCCTGCAA	0.00879
CGTACGCA	-0.0382
CTGGAGAC	-0.0117
TGACTGCA	-0.232
AAAGGACG	0.0463
AAAAATTG	-0.095
TGCATCAA	0.145

Sequence	PBM E-score
GGCGCATA	0.132
ATATAAAG	0.0638
CTCTGAAG	-0.126
CATGAGAC	-0.0251
ACTGCCTC	0.0654
CAAGACCG	-0.00525
AACCGTCT	-0.152
TGGCCTAA	-0.0413
ATCATCCA	0.0993
AAAACGTC	0.0498
CACATCGC	-0.125
TATGTACA	0.0429
GTCAAAAC	0.0485
GATAGTAA	0.0722
AGGCCCGC	-0.00315
AAAGCCAC	0.145
CCCACTAG	-0.198
GTGAGCTA	0.061
AGTAAAAT	-0.0226
ATTGGAAA	-0.0614
AACCACAC	0.125
TATCAATA	0.0257
CAATGCAA	0.118
GTACCTTA	-0.00526
GCCTAACA	0.0317

Sequence	PBM E-score
CTGACAGA	0.18
CGGAGACC	0.0242
CTATTAAG	-0.0659
TCACGGAA	0.00343
AGCCGCCA	-0.336
CGGGCTCA	-0.178
AAGCATCC	-0.123
GACGACAA	0.221
AAACGCTA	-0.198
GTGTTACA	-0.112
AGGCGATA	0.0241
GCCGTAGC	-0.0864
CGTCAGAG	-0.0277
ATGTCCCG	-0.0705
CACTGGCG	0.0007
GGGCCTAC	-0.255
CCTACAAA	0.043
GCACCACC	-0.049
CGGTGAGA	0.0581
AGACCCGG	0.0347
ACCCGAGA	0.0345
ACTGTGCT	-0.00417
CAATACAC	0.0544
ACTGACTA	-0.0179
AAGCCGAA	0.0142

Sequence	PBM E-score
GTTTAATA	0.198
ACCTCTAT	-0.0653
CGCCGCCA	-0.0777
CCGTACCC	0.0218
AAAACCTA	0.0556
AAGTAAAA	-0.131
AATCCAAG	0.0978
TACCTATA	-0.0107
TCCGGACA	0.0815
GCTCGTAA	-0.0103
ACTCGGCA	0.154
GCCACTAA	-0.0939
GCACACAA	0.0547
AAGTGTCA	-0.186
AGGGAGAT	-0.0858
AAGTGAAC	-0.0513
CAAATGTG	0.166
ACAAAAGC	0.0641
GTGCTCCA	-0.0717
ATGATACC	0.154
AACGCTGC	0.0121
GCCCACGA	-0.0518
AATACCCG	0.0698
ATCTTCGA	0.0799
CTGGCAAA	0.137

3 entries drawn at random from those above:
Sequence	PBM E-score
ACCTCTAT	-0.0653
CGCCGCCA	-0.0777
AAAACCTA	0.0556

Following part

Sequence	PBM E-score
GTGCGATA	-0.0268
ATGACTGC	0.0247
GAGTGTGC	0.0556
TCCTCCAA	0.0214
CTGAACTC	-0.0772
GCGTGAAA	-0.0326
ACTCCAAT	-0.176
ATGACTTG	0.0143
ACTATGTA	0.00908
ACAACGCC	0.0328
TCAATAGA	0.0639
CGGCCGAG	0.0605
CCCCAAGC	0.0423
GAGAATGC	0.11
CCTAGGGA	0.0278
CACAATTC	0.212
GAGCGCCC	-0.136
TACATAAA	-0.0428
AGTGCAAG	0.156
AGCGAGTC	0.0625
ATGGCCTC	-0.0922
AACCGAGC	0.045
GTACGGTA	0.0837
GGCAGGAA	-0.0622
ATCCGAAA	0.0482

Sequence	PBM E-score
ACCAAGAC	0.00197
GAGGCGGC	-0.0334
ACTGGTGC	0.0109
GTAGGGAC	0.0213
TAGCCTAA	-0.226
CATATGAG	0.193
AGCTATAT	0.0935
CGCTGAAA	-0.113
CCCTTCCC	0.0699
GGGCGAGA	-0.016
TCAATTCA	0.102
GCCTCCTA	-0.342
CCGCGAGG	0.152
CTCTTCGA	0.0214
AGCGGACG	0.146
AGTCTCCC	-0.14
AGAGCCAA	0.132
TGGGACCA	-0.0324
AAAAAACC	-0.0346
GCTGGACA	-0.17
CTCCATAA	-0.181
CTAAGACC	0.0966
AAGTGCCG	-0.124
GCGTGCAA	0.0391
CAGGAAGC	0.135

Sequence	PBM E-score
AGATGTCC	-0.106
AAGCTGGG	-0.158
AGTGCCAC	-0.137
AAAACCGG	0.0861
GAGTAAAA	0.115
ACTAAATG	-0.0439
GACCTTAC	-0.0117
CGTGAATA	0.17
CCCTATAC	0.0369
CCCGGTGC	-0.242
CGGAAGCA	0.161
ATCGGACA	-0.0296
ACCCCAAG	0.0597
ATTGGCGG	-0.171
TCCGCAAA	-0.0547
GCGGCTGA	-0.0643
CGGATTAG	-0.0194
AAGATCTA	-0.0798
AACGTCCA	-0.131
AAAAAATG	0.0861
GTTATAGA	-0.0589
GGGAAGGA	-0.0581
CGGCGGTA	0.138
CCAACGGC	-0.271
ATCTAACA	0.0258

Sequence	PBM E-score
ATGGAGCG	0.0304
AGTGGTCG	0.00821
CCTATACG	-0.11
TAGTTCAA	0.136
GGAGTCCC	-0.166
AACTCACG	0.0331
TAGTGAGA	-0.0197
CTGTGGCA	0.064
TAGATCCA	0.12
GGGGCCGA	-0.158
ACTATCAC	-0.016
AAGGTACT	0.0177
TCGCCACA	0.0198
CGTGATTC	-0.119
ACGGGGGC	-0.378
CCTTTGAA	-0.032
CATAGTAA	0.144
ACTCCCCT	0.0305
CGCCACAA	0.0944
